Changes are numbered by the printed parent chain. Numbers in names are those of the source. These are yes or no findings as the source states them, for the method shown. Binding seen in cells or lysates may run through a third protein. Some binding calls cover weakened binding; strength is not graded here. Values belong to the molecule of their own block, whether it stands above or below them.
Assays:
[1] = molecular target: T1, HA-tagged LEF-1 (UniProt Q9UJU2 1-399); test: co-IP; HEK293 total lysates, GFP-β-catenin and HA-LEF1 transiently expressed; IP by anti-HA antibody; cells untreated or treated for 6 h with NSC23766 and/or LiCl
T1 construct: LEF-1 (lymphoid enhancer factor 1); written both HA-LEF-1 and LEF-1-HA; also called pHA-LEF-1; HA-LEF-1; source: HEK293, transfected, in lysate; NIH 3T3, transfected, in lysate and in fixed cells

Chains of the proteins cited; added tags and fusions are not shown.
UniProt Q9UJU2: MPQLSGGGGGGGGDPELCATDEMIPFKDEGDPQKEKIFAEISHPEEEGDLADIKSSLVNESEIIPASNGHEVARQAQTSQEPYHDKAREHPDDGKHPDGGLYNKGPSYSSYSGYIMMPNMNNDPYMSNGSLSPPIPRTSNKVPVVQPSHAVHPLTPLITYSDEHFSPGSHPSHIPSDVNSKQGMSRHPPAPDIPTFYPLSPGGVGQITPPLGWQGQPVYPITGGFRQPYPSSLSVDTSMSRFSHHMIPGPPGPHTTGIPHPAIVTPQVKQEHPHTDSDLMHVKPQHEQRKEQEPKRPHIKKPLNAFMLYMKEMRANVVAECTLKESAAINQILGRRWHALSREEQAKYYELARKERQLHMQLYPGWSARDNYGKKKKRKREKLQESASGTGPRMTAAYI
UniProt P27782: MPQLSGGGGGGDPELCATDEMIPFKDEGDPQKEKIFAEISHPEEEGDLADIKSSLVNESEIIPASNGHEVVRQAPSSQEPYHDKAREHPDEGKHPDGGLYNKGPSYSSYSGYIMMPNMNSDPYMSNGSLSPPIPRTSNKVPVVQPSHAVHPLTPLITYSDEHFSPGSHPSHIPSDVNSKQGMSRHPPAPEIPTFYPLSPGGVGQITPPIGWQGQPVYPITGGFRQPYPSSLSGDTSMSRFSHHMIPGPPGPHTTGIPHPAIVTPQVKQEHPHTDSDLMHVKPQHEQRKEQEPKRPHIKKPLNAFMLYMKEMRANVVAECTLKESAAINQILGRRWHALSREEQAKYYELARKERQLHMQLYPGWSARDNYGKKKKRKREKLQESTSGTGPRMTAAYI

[2] = molecular target: LEF-1 (endogenous, NIH 3T3 cells) (mouse (endogenous in NIH 3T3)) (UniProt P27782); test: proximity ligation; PLA of myc-tagged β-catenin constructs with endogenous LEF-1; unpublished data
[3] = molecular target: T1, HA-tagged LEF-1; test: co-IP; NIH 3T3 lysates, pLEF-1-HA co-transfected with pβ-catenin-myc constructs; IP with HA mAb or isotype control IgG, blot with anti-myc; densitometry over three independent experiments
[4] = molecular target: T1, HA-tagged LEF-1; test: proximity ligation; Duolink in situ PLA on fixed NIH 3T3 cells co-transfected with myc-tagged β-catenin constructs and pHA-LEF-1; anti-myc and anti-HA antibodies

Molecule: myc-tagged β-catenin wild-type (from UniProt P35222 1-781)
binding [2]: binds
binding [3]: binds
binding [4]: binds

B1: myc-tagged β-catenin S191A (natural protein, UniProt P35222 1-781, looked up)
chain: MATQADLMELDMAMEPDRKAAVSHWQQQSYLDSGIHSGATTTAPSLSGKGNPEEEDVDTSQVLYEWEQGFSQSFTQEQVADIDGQYAMTRAQRVRAAMFPETLDEGMQIPSTQFDAAHPTNVQRLAEPSQMLKHAVVNLINYQDDAELATRAIPELTKLLNDEDQVVVNKAAVMVHQLSKKEASRHAIMRAPQMVSAIVRTMQNTNDVETARCTAGTLHNLSHHREGLLAIFKSGGIPALVKMLGSPVDSVLFYAITTLHNLLLHQEGAKMAVRLAGGLQKMVALLNKTNVKFLAITTDCLQILAYGNQESKLIILASGGPQALVNIMRTYTYEKLLWTTSRVLKVLSVCSSNKPAIVEAGGMQALGLHLTDPSQRLVQNCLWTLRNLSDAATKQEGMEGLLGTLVQLLGSDDINVVTCAAGILSNLTCNNYKNKMMVCQVGGIEALVRTVLRAGDREDITEPAICALRHLTSRHQEAEMAQNAVRLHYGLPVVVKLLHPPSHWPLIKATVGLIRNLALCPANHAPLREQGAIPRLVQLLVRAHQDTQRRTSMGGTQQQFVEGVRMEEIVEGCTGALHILARDVHNRIVIRGLNTIPLFVQLLYSPIENIQRVAAGVLCELAQDKEAAEAIEAEGATAPLTELLHSRNEGVATYAAAVLFRMSEDKPQDYKKRLSVELTSSLFRTEPMAWNETADLGLDIGAQGEPLGYRQDDPSYRSFHSGGYGQDALGMDPMMEHEMGGHHPGADYPVDGLPDLGHAQDLMDGLPPGDSNQLAWFDTDL
notes: from the Long laboratory (Wu et al., 2008); also called pmyc-β-catenin-S191A; source: NIH 3T3, transfected, in lysate and in fixed cells
binding [2]: binds
binding [4]: binds

Other lines, results leading:

binding [1]: binds
Molecule: GFP-β-catenin (from UniProt P35222 1-781)

binding [2]: binds
binding [4]: binds
B2: myc-tagged β-catenin S605A (natural protein, UniProt P35222 1-781, looked up)
chain: B1 chain with A191S, S605A
notes: from the Long laboratory (Wu et al., 2008); also called pmyc-β-catenin-S605A; source: NIH 3T3, transfected, in lysate and in fixed cells

Reference: paper PMC4657330, “Rac1 augments Wnt signaling by stimulating β-catenin–lymphoid enhancer factor-1 complex assembly independent of β-catenin nuclear import” (Journal of Cell Science, 2015)
